Measurements as given in paper doi:10.1101/2023.07.11.548599.
No constants are given. Whether binding was seen depends on the method and setting. Binding seen in cells or lysates may run through a third protein. Sequences can lack the tags named with a protein.

Molecular target: T1, GFP-Piwi (D. melanogaster) (UniProt Q9VKM1)
T1 sequence: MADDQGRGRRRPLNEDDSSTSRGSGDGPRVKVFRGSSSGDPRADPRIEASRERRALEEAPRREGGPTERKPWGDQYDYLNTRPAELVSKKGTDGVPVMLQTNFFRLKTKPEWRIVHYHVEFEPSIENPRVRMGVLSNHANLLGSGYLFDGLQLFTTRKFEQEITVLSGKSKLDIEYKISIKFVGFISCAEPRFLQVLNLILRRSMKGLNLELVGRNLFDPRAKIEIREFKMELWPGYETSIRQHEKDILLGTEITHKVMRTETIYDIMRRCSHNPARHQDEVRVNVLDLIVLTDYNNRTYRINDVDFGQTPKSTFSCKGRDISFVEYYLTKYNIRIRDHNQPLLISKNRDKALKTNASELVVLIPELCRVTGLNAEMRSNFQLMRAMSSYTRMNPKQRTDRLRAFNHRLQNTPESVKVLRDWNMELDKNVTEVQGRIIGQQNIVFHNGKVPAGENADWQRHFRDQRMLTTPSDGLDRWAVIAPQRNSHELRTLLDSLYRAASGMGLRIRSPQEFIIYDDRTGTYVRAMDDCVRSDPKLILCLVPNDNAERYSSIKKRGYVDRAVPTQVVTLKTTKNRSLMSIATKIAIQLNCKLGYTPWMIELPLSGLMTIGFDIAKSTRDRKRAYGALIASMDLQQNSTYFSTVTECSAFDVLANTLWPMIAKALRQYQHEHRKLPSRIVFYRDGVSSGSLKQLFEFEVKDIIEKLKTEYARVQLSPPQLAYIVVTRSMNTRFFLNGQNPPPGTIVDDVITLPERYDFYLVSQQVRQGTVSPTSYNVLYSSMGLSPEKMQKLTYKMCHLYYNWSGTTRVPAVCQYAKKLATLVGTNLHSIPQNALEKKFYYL
Assay: co-IP

B1: D1 (protein, UniProt P22058 1-355)
chain: MEEVAVKKRGRPSKASVGGKSSTAAVAAISPGIKKRGRPAKNKGSSGGGGQRGRPPKASKIQNDEDPEDEGEEDGDGDGSGAELANNSSPSPTKGRGRPKSSGGAGSGSGDSVKTPGSAKKRKAGRPKKHQPSDSENEDDQDEDDDGNSSIEERRPVGRPSAGSVNLNISRTGRGLGRPKKRAVESNGDGEPQVPKKRGRPPQNKSGSGGSTGYVPTGRPRGRPKANAAPVEKHEDNDDDQDDENSGEEEHSSPEKTVVAPKKRGRPSLAAGKVSKEETTKPRSRPAKNIDDDADDADSADQGQHNSKKESNDEDRAVDGTPTKGDGLKWNSDGENDANDGYVSDNYNDSESVAA
With B1 the binding was “no binding”.
